From patent publication US20080171716A1, “NUCLEIC ACID MODULATION OF TOLL-LIKE RECEPTOR-MEDIATED IMMUNE STIMULATION” (Protiva Biotherapeutics, Inc., priority 2006, published 2008)
For some assays here: At least one compound was matched to its structure with a doubt left. Some entries share one result that the patent states for a list of compounds. m = 2'-O-methyl; r = 2'-OH (RNA)

How the values were obtained:
[1] = biological target: T1, TLR7 (Homo sapiens, UniProt Q9NYK1); assay: Loxoribine (TLR7 agonist)-induced IFN-α/IL-6 production in human PBMCs; format: cell-based; details: human PBMC cultures; 300 μM Lox alone
T1 construct: Human PBMCs were isolated from whole blood of healthy donors; endogenous in cells; host or cells: primary human PBMCs from healthy donors
T1 sequence (Q9NYK1 27-1049): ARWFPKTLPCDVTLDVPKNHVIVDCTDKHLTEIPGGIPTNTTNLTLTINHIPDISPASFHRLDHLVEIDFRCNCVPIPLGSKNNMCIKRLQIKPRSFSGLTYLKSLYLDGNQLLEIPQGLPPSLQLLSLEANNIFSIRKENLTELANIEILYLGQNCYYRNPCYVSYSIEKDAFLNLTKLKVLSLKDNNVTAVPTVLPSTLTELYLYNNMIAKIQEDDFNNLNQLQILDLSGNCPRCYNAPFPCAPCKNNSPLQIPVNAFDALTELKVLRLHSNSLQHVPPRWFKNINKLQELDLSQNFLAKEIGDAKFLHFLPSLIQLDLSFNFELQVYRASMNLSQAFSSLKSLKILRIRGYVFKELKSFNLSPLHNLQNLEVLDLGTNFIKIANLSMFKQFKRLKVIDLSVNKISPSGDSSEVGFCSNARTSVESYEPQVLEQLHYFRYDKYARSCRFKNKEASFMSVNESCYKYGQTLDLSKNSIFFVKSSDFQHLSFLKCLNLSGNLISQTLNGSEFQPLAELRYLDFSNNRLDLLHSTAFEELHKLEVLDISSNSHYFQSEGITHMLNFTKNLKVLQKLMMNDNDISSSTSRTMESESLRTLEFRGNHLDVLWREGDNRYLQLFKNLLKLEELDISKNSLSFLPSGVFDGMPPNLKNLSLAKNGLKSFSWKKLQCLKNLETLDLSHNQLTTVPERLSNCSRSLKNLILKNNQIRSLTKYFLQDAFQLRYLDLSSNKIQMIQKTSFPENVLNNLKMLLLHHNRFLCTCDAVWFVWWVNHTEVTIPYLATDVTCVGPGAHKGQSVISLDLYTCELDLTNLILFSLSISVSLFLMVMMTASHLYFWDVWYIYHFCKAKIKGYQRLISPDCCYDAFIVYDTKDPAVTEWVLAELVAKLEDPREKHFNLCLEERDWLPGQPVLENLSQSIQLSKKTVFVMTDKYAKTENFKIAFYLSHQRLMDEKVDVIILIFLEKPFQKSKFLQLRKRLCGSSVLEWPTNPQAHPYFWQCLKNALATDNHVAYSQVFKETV
Method: (§1) All RNA molecules used in this study were heated at 90° C. for 3 min. and then placed at 37° C. for 60 min. Non-denaturing PAGE analysis on a 20% polyacrylamide gel was performed to confirm that ssRNA molecules were intact and that no duplexes had formed upon heating. The RNA molecules were encapsulated in a SNALP formulation comprising PEG-cDMA:DLinDMA:cholesterol:DSPC in a 2:40:48:10 mol % ratio (2:40 SNALP), prepared using a syringe press process.
Fresh human peripheral blood mononuclear cells (PBMCs) were isolated and seeded at about 3×10^5 cells/well in a total volume of 180 μl. Next, 20 μl of the appropriate SNALP diluted in PBS or 10 μl of naked TLR agonist were added to the PBMCs. For time course experiments, PBMCs were pretreated with UmodS ssRNA or a control and the appropriate naked TLR agonist was added at 0, 0.5, or 2 hours after pretreatment. When the SNALP and naked TLR agonist were added separately, the SNALP was added first followed by the naked TLR agonist. At t=24 hr., the cell supernatant was harvested and IFN-α and/or IL-6 levels were determined using ELISA.
Lipid Encapsulation of RNA and ODN. RNA or ODN were encapsulated in liposomes by a process of spontaneous vesicle formation as described in Judge et al., supra, and Jeffs et al., Pharm. […]
(§2) Cytokine ELISA. All cytokines were quantified using sandwich ELISA kits according to the manufacturer's instructions. […]

[2] = biological target: T2, TLR7 (Mus musculus, UniProt P58681); assay: In vivo inhibition of loxoribine-mediated cytokine induction in mice; design: from tissue; host or cells: whole animal: female Balb/C mice, plasma cytokines; species or system Balb/C mice; details: 1 mg aqueous solution of Lox IV, preliminary studies
T2 sequence (P58681 27-1050): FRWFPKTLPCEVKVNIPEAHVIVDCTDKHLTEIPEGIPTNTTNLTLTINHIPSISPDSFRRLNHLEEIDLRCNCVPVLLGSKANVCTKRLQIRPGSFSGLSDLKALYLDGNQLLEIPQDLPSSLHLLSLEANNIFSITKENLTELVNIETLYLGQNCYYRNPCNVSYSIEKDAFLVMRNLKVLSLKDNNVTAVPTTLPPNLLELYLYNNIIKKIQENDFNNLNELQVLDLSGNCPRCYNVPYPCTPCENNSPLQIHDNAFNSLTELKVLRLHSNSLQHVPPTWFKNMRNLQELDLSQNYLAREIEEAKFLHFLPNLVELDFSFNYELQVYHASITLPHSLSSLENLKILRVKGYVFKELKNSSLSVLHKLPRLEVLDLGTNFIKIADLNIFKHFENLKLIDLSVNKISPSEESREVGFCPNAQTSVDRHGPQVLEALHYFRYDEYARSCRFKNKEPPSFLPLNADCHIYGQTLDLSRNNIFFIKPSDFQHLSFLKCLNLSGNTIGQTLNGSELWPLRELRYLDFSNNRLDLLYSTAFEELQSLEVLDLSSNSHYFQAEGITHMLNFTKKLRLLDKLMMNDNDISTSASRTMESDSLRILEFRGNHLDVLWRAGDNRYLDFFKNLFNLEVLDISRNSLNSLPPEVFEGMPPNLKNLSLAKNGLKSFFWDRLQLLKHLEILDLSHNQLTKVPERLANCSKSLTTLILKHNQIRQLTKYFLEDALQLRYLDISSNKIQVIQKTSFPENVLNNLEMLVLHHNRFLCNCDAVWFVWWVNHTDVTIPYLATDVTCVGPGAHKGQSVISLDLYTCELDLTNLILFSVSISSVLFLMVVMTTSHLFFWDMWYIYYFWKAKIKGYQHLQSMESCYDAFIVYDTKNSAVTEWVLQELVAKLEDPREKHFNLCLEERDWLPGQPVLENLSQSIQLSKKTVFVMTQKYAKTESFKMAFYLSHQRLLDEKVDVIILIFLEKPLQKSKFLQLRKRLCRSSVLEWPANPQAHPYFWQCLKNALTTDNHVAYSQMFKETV
Method: Cytokine ELISA. All cytokines were quantified using sandwich ELISA kits according to the manufacturer's instructions. These were mouse and human IFN-α (PBL Biomedical; Piscataway, N.J.) and IL-6 (eBioscience; San Diego, Calif.).
In Vivo Cytokine Induction. Animal studies were performed at Protiva Biotherapeutics in accordance with Canadian Council on Animal Care guidelines and following protocol approval by the local Animal Care and Use Committee. Female Balb/C mice were subjected to a two-week quarantine and acclimation period prior to use at six to eight-weeks of age. RNA formulations were administered by standard injection in the lateral tail vein in 0.2 ml PBS. Six hours after injection, blood was collected by cardiac puncture and processed as plasma for cytokine analysis. In experiments studying inhibition of cytokine induction by loxoribine, formulated RNA (100 μg) was administered IV 2 h prior to IV administration of 1 mg loxoribine in PBS. Blood was collected by cardiac puncture 2 h after administration of loxoribine and processed as plasma for cytokine analysis.

[3] = biological target: T2, TLR7; assay: Loxoribine-induced IFN-α/IL-6 production in murine Flt3L-derived dendritic cells; format: cell-based; design: Femurs and tibiae of female Balb/C mice were isolated; endogenous in cells; host or cells: Flt3L-derived dendritic cells cultured from bone marrow of female Balb/C mice; details: murine Flt3L DC cultures; 30 μM Lox
Method: Lipid Encapsulation of RNA and ODN. RNA or ODN were encapsulated in liposomes by a process of spontaneous vesicle formation as described in Judge et al., supra, and Jeffs et al., Pharm. Res., 22:362-372 (2005).
Flt3L-derived dendritic cells (DC) were generated as described in Gilliet et al., J. Exp. Med., 195:953-958 (2002), using 100 ng/ml murine Flt3-ligand (Peprotech) supplemented media. Femurs and tibiae of female Balb/C mice were isolated and rinsed in sterile PBS. The ends of bones were cut and marrow harvested in complete media (RPMI 1640, 10% heat inactivated FBS, 1% penicillin/streptomycin, 2 mM L-glutamine, 1 mM sodium pyruvate, 25 mM HEPES, 50 μM 2-mercaptoethanol). Bone marrow cells were passed through a 70 μm strainer and centrifuged at 1000 rpm for 7 min. and resuspended in complete media supplemented with 100 ng/ml murine Flt3L to 2×10^6 cells/ml. 2 ml of cells were seeded in 6-well plates and 1 ml fresh media was added every two to three days. On day 9 of culture, non-adherent cells were washed in complete media and plated into 96-well plates at concentrations ranging from 0.5 to 2.5×10^5 cells/well. […]
as §2

[4] = tested on: TLR7/8; assay: Cytokine induction in human PBMCs by immunostimulatory RNA, alone or co-formulated with modified ssRNA in the same SNALP/lipid particle; format: cell-based; details: co-formulated in the same SNALP, 24 hr
Method: as §1
Fresh human peripheral blood mononuclear cells (PBMCs) were isolated and seeded at about 3×10^5 cells/well in a total volume of 180 μl. Next, 20 μl of the appropriate SNALP diluted in PBS or 10 μl of naked TLR agonist were added to the PBMCs. […] At t=24 hr., the cell supernatant was harvested and IFN-α and/or IL-6 levels were determined using ELISA. […]
Fresh human peripheral blood mononuclear cells (PBMCs) were isolated and seeded at about 3×10^5 cells/well in a total volume of 180 μl. […] At t=24 hr., the cell supernatant was harvested and IFN-α and/or IL-6 levels were determined using an enzyme-linked immunosorbent assay (ELISA). For example, IFN-α and IL-6 levels can be measured using a sandwich ELISA kit available from PBL Biomedical (Piscataway, N.J.) and eBioscience (San Diego, Calif.), respectively. […]
as §2

| Compound | IFN-α production induced by Lox added as free drug [1] | IL-6 production induced by Lox added as free drug [1] | time of peak plasma cytokine levels after IV injection [2] | cytokine induction by Lox alone [3] | IFN-α production induced by ApoB antisense ssRNA in the presence of the modified ssRNA [4] |
| --- | --- | --- | --- | --- | --- |
| C=CCn1c(=O)n([C@@H]2O[C@H](CO)[C@@H](O)[C@H]2O)c2nc(N)[nH]c(=O)c21 [Lox, 7-allyl-8-oxoguanosine, reference compound] | robust | robust | around 2 h | Potent cytokine induction | – |
| NP1496 UmodS: influenza NP1496 sense strand ssRNA with 2′OMe uridines: GGAmUCmUmUAmUmUmUCmUmUCGGAGUU (sense GGAUCUUAUUUCUUCGGAGUU; sugars from the 5' end rrrmrmmrmmmrmmrrrrrrr, backbone not given here) | – | – | – | – | less than 60 pg/ml |
